Reference: patent EP4656185A1, “NOVEL MOLECULAR ASSEMBLY OF AXITINIB” (Scai Therapeutics Co., Ltd., priority 2024, dated 2025)
At least one compound was matched to its structure with a doubt left.

Test: Solubility (dissolution concentration) of axitinib polymorph at pH 1 and pH 2
Format: physicochemical
Conditions: filtered
Experimental: Experimental Example 4. Solubility of new axitinib polymorph (SCAI-Form)
Method for measuring solubility at pH 1: Stirred for 15 minutes at a concentration of 5 mg/mL, and then filtered, diluted 10 times with DW, and analyzed. (The value calculated as [measured value x 10] is described in the results)
Method for measuring solubility at pH 2: Stirred for 15 minutes at a concentration of 1 mg/mL, and then filtered, analyzed, and shown in Table 6.

CNC(=O)c1ccccc1Sc1ccc2c(/C=C/c3ccccn3)n[nH]c2c1 [SCAI-Form, axitinib]
Dissolution concentration at pH 1 (pH 1, stirred for 15 minutes at 5 mg/mL, diluted 10 times with DW, value = measured value x 10): 4.363 mg/mL
Dissolution concentration at pH 2 (pH 2, stirred for 15 minutes at 1 mg/mL, analyzed): 0.171 mg/mL
